Literature values as cited in US12115222B2, “Compositions and methods for improving the solubility of erectile dysfunction therapeutics” (Villya LLC, priority 2023, dated 2024).

Settings: from the US FDA; cited from earlier work

O=C1NS(=O)(=O)c2ccccc21 [Saccharin]
Times Sweeter than Sucrose: 200-700
